# From patent US20070249620A1, “Urea Derivative” (priority 2004, published 2007)
# Some results were stated once for a whole list of compounds, not compound by compound.
# System: male C57BL/6N mouse
# Assay: Neutral fat absorption inhibitory effect (triglyceride concentration in small intestine lymph fluid after oral fat emulsion)
# Assay type: in vivo
# Settings: compound 10 or 30 mg/kg orally with 20% neutral fat emulsion, one hour after administration
row,SMILES,neutral fat absorption inhibitory effect (decrease in triglyceride concentration in lymph fluid vs control group) [%]
1,"COc1ccc(C)cc1NC(=O)Nc1ccc(N2CCN(C(=O)Nc3c(C)cccc3Cl)CC2)cc1 [Example 59, 4-{4-[3-(2-methoxy-5-methyl-phenyl)-ureido]-phenyl}-piperazine-1-carboxylic acid (2-chloro-6-methyl-phenyl)-amide]",≥ 60
2,"COc1ccc(C)cc1NC(=O)Nc1ccc(N2CCN(C(=O)Nc3c(C)cccc3C)CC2)cc1 [Example 62, 4-{4-[3-(2-methoxy-5-methyl-phenyl)-ureido]-phenyl}-piperazine-1-carboxylic acid (2,6-dimethyl-phenyl)-amide]",≥ 60
3,"COc1ccc(C)cc1NC(=O)Nc1ccc(N2CCN(C(=O)Nc3c(F)cccc3C(F)(F)F)CC2)cc1 [Example 64, 4-{4-[3-(2-methoxy-5-methyl-phenyl)-ureido]-phenyl}-piperazine-1-carboxylic acid (2-fluoro-6-trifluoromethyl-phenyl)-amide]",≥ 60
4,"COc1ccc(NC(=O)N2CCN(c3ccc(NC(=O)Nc4cc(C)ccc4OC)cc3)CC2)c(C)c1 [Example 73, 4-{4-[3-(2-methoxy-5-methyl-phenyl)-ureido]-phenyl}-piperazine-1-carboxylic acid (4-methoxy-2-methyl-phenyl)-amide]",≥ 60
5,"COc1ccc(Cl)cc1NC(=O)Nc1ccc(N2CCN(C(=O)Nc3c(F)cccc3F)CC2)cc1 [Example 77, 4-{4-[3-(5-chloro-2-methoxy-phenyl)-ureido]-phenyl}-piperazine-1-carboxylic acid (2,6-difluoro-phenyl)-amide]",≥ 60
6,"COc1ccc(Cl)cc1NC(=O)Nc1ccc(N2CCN(C(=O)Nc3c(C)cccc3Cl)CC2)cc1 [Example 79, 4-{4-[3-(5-chloro-2-methoxy-phenyl)-ureido]-phenyl}-piperazine-1-carboxylic acid (2-chloro-6-methyl-phenyl)-amide]",≥ 60
7,"CCOc1ccccc1NC(=O)Nc1ccc(N2CCN(C(=O)Nc3c(C)cccc3Cl)CC2)cc1 [Example 82, 4-{4-[3-(2-ethoxy-phenyl)-ureido]-phenyl}-piperazine-1-carboxylic acid (2-chloro-6-methyl-phenyl)-amide]",≥ 60
8,"CCOc1ccc(C)cc1NC(=O)Nc1ccc(N2CCN(C(=O)Nc3c(C)cccc3Cl)CC2)cc1 [Example 85, 4-{4-[3-(2-ethoxy-5-methyl-phenyl)-ureido]-phenyl}-piperazine-1-carboxylic acid (2-chloro-6-methyl-phenyl)-amide]",≥ 60
9,"COc1ccc(C)cc1NC(=O)Nc1ccc(N2CCN(C(=O)Nc3ccc(F)cc3C(F)(F)F)CC2)cc1 [Example 87, 4-{4-[3-(2-methoxy-5-methyl-phenyl)-ureido]-phenyl}-piperazine-1-carboxylic acid (4-fluoro-2-trifluoromethyl-phenyl)-amide]",≥ 60
10,"CCOc1ccc(F)cc1NC(=O)Nc1ccc(N2CCN(C(=O)Nc3ccccc3C(F)(F)F)CC2)cc1 [Example 89, 4-{4-[3-(2-ethoxy-5-fluoro-phenyl)-ureido]-phenyl}-piperazine-1-carboxylic acid (2-trifluoromethyl-phenyl)-amide]",≥ 60
11,"CCOc1ccc(F)cc1NC(=O)Nc1ccc(N2CCN(C(=O)Nc3ccccc3C)CC2)cc1 [Example 90, 4-{4-[3-(2-ethoxy-5-fluoro-phenyl)-ureido]-phenyl}-piperazine-1-carboxylic acid o-tolylamide]",≥ 60
12,"CCOc1ccc(F)cc1NC(=O)Nc1ccc(N2CCN(C(=O)Nc3c(C)cccc3Cl)CC2)cc1 [Example 91, 4-{4-[3-(2-ethoxy-5-fluoro-phenyl)-ureido]-phenyl}-piperazine-1-carboxylic acid (2-chloro-6-methyl-phenyl)-amide]",≥ 60
13,"CCOc1ccc(F)cc1NC(=O)Nc1ccc(N2CCN(C(=O)Nc3c(F)cccc3C(F)(F)F)CC2)cc1 [Example 93, 4-{4-[3-(2-ethoxy-5-fluoro-phenyl)-ureido]-phenyl}-piperazine-1-carboxylic acid (2-fluoro-6-trifluoromethyl-phenyl)-amide]",≥ 60
14,"CCOc1ccc(F)cc1NC(=O)Nc1ccc(N2CCN(C(=O)Nc3c(Cl)cccc3Cl)CC2)cc1 [Example 94, 4-{4-[3-(2-ethoxy-5-fluoro-phenyl)-ureido]-phenyl}-piperazine-1-carboxylic acid (2,6-dichloro-phenyl)-amide]",≥ 60
15,"COc1ccc(F)cc1NC(=O)Nc1ccc(N2CCN(C(=O)Nc3c(F)cccc3C(F)(F)F)CC2)cc1 [Example 100, 4-{4-[3-(5-fluoro-2-methoxy-phenyl)-ureido]-phenyl}-piperazine-1-carboxylic acid (2-fluoro-6-trifluoromethyl-phenyl)-amide]",≥ 60
16,"CCOc1ccc(Cl)cc1NC(=O)Nc1ccc(N2CCN(C(=O)Nc3c(C)cccc3Cl)CC2)cc1 [Example 103, 4-{4-[3-(5-chloro-2-ethoxy-phenyl)-ureido]-phenyl}-piperazine-1-carboxylic acid (2-chloro-6-methyl-phenyl)-amide]",≥ 60
17,"CCOc1ccc(Cl)cc1NC(=O)Nc1ccc(N2CCN(C(=O)Nc3ccc(OC)cc3C)CC2)cc1 [Example 106, 4-{4-[3-(5-chloro-2-ethoxy-phenyl)-ureido]-phenyl}-piperazine-1-carboxylic acid (4-methoxy-2-methyl-phenyl)-amide]",≥ 60
18,"COc1ccc(NC(=O)N2CCN(c3ccc(NC(=O)Nc4cc(Cl)ccc4OC)cc3)CC2)c(C)c1 [Example 109, 4-{4-[3-(5-chloro-2-methoxy-phenyl)-ureido]-phenyl}-piperazine-1-carboxylic acid (4-methoxy-2-methyl-phenyl)-amide]",≥ 60
19,"CCOc1ccccc1NC(=O)Nc1ccc(N2CCN(C(=O)Nc3ccc(OC)cc3C)CC2)cc1 [Example 110, 4-{4-[3-(2-ethoxy-phenyl)-ureido]-phenyl}-piperazine-1-carboxylic acid (4-methoxy-2-methyl-phenyl)-amide]",≥ 60
20,"CCOc1ccc(C)cc1NC(=O)Nc1ccc(N2CCN(C(=O)Nc3ccc(OC)cc3C)CC2)cc1 [Example 111, 4-{4-[3-(2-ethoxy-5-methyl-phenyl)-ureido]-phenyl}-piperazine-1-carboxylic acid (4-methoxy-2-methyl-phenyl)-amide]",≥ 60
21,"CCOc1ccc(F)cc1NC(=O)Nc1ccc(N2CCN(C(=O)Nc3ccc(OC)cc3C)CC2)cc1 [Example 112, 4-{4-[3-(2-ethoxy-5-fluoro-phenyl)-ureido]-phenyl}-piperazine-1-carboxylic acid (4-methoxy-2-methyl-phenyl)-amide]",≥ 60
22,"COc1ccc(NC(=O)N2CCN(c3ccc(NC(=O)Nc4cc(F)ccc4OC)cc3)CC2)c(C)c1 [Example 113, 4-{4-[3-(5-fluoro-2-methoxy-phenyl)-ureido]-phenyl}-piperazine-1-carboxylic acid (4-methoxy-2-methyl-phenyl)-amide]",≥ 60
23,"COc1ccc(Cl)cc1NC(=O)Nc1ccc(N2CCN(C(=O)Nc3c(F)cccc3C(F)(F)F)CC2)cc1 [Example 115, 4-{4-[3-(5-chloro-2-methoxy-phenyl)-ureido]-phenyl}-piperazine-1-carboxylic acid (2-fluoro-6-trifluoromethyl-phenyl)-amide]",≥ 60
24,"CCOc1ccccc1NC(=O)Nc1ccc(N2CCN(C(=O)Nc3c(F)cccc3C(F)(F)F)CC2)cc1 [Example 117, 4-{4-[3-(2-ethoxy-phenyl)-ureido]-phenyl}-piperazine-1-carboxylic acid (2-fluoro-6-trifluoromethyl-phenyl)-amide]",≥ 60
25,"CCOc1ccc(C)cc1NC(=O)Nc1ccc(N2CCN(C(=O)Nc3ccc(C)cc3Cl)CC2)cc1 [Example 120, 4-{4-[3-(2-ethoxy-5-methyl-phenyl)-ureido]-phenyl}-piperazine-1-carboxylic acid (2-chloro-4-methyl-phenyl)-amide]",≥ 60
26,"CCOc1ccccc1NC(=O)Nc1ccc(N2CCN(C(=O)Nc3ccc(C)cc3Cl)CC2)cc1 [Example 121, 4-{4-[3-(2-ethoxy-phenyl)-ureido]-phenyl}-piperazine-1-carboxylic acid (2-chloro-4-methyl-phenyl)-amide]",≥ 60
27,"CCOc1ccc(F)cc1NC(=O)Nc1ccc(N2CCN(C(=O)Nc3ccc(C)cc3Cl)CC2)cc1 [Example 122, 4-{4-[3-(2-ethoxy-5-fluoro-phenyl)-ureido]-phenyl}-piperazine-1-carboxylic acid (2-chloro-4-methyl-phenyl)-amide]",≥ 60
28,"Cc1cccc(Cl)c1NC(=O)N1CCN(c2ccc(NC(=O)Nc3ccccc3F)cc2)CC1 [Example 125, 4-{4-[3-(2-fluoro-phenyl)-ureido]-phenyl}-piperazine-1-carboxylic acid (2-chloro-6-methyl-phenyl)-amide]",≥ 60
